We go through one molecule from patent US20250361311A1.

No constants are given. Whether binding was seen depends on the method and setting. Some results given as binding are weak or reduced against the parent protein; the word gives no strength.

For this assay, the target named is T1, soluble recombinant human TL1A trimer (human) (UniProt O95150).
T1 sequence (looked up): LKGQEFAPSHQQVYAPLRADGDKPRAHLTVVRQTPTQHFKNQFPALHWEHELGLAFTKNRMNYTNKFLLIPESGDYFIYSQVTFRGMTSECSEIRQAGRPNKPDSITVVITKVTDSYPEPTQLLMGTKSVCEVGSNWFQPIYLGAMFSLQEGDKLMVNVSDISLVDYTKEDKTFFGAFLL
Briefly: BLI, Fab at 200 nM on immobilized TL1A trimer, 25 C. On the technique in general: BLI is a label-free optical method that tracks binding on a fibre tip over time.

B1: 70416_041[TL1A]H1L1 Fab (Fab, V domains shown)
VH: QVQLVQSGAEVKKPGASVKVSCKVSGFSVTSYNVHWVRQAPGQGLEWMGVMWSGGNTDYNSKFQGRVTMTRDTSTNTVYMELSSLRSEDTAVYYCARAGRYYHDSNYYWDFPYWGQGTLVTVSS
VL: DIQMTQSPSSVSASVGDRVTITCRASEDIYSGLAWYQQKPGKSPKLLIYGASSLQDGVPSRFSGSGSGTDYTLTISSLQPEDFATYFCQEGLKSPYTFGAGTKLEIK
As for B1, the binding result was “binds”.
